Source: PMC8384837
Where a chain is given by its changes, count along the chain named. The list shows a part of the results. For part of these data: At the low end of the ranking the order means little.

Experiments:
Conditions in all cases: yeast three-hybrid, YBZ-1, SC-Leu-His + 0.5 mM 3-AT, 4 days
[1] = target: T1, PUM1 PUF domain R5-NAR C1007N + R1008A + Q1011R (Homo sapiens) (UniProt Q14671)
T1 sequence: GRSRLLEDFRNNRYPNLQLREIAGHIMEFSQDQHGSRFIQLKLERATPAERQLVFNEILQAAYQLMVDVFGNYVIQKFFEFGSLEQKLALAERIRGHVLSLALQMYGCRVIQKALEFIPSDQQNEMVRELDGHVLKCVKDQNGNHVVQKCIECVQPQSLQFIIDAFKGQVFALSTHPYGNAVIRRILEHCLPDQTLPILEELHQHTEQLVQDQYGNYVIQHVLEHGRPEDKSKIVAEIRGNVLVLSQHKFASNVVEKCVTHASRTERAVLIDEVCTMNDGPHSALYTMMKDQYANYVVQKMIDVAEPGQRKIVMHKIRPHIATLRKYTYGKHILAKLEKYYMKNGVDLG

[2] = target: T2, PUM1 PUF domain R5-NDG C1007N + R1008D + Q1011G (UniProt Q14671)
T2 sequence: T1 sequence with A181D, R184G

[3] = target: T3, PUM1 PUF domain R5-NTR C1007N + R1008T + Q1011R (Homo sapiens) (UniProt Q14671)
T3 sequence: T1 sequence with A181T

[4] = target: T4, PUM1 PUF domain R5-PRC C1007P + Q1011C (Homo sapiens) (UniProt Q14671)
T4 sequence: T1 sequence with N180P, A181R, R184C

[5] = target: T5, PUM1 PUF domain R5-QAR C1007Q + R1008A + Q1011R (Homo sapiens) (UniProt Q14671)
T5 sequence: T1 sequence with N180Q

[6] = target: T6, PUM1 PUF domain R5-QNR C1007Q + R1008N + Q1011R (Homo sapiens) (UniProt Q14671)
T6 sequence: T1 sequence with N180Q, A181N

[7] = target: T7, PUM1 PUF domain R5-QSR C1007Q + R1008S + Q1011R (UniProt Q14671)
T7 sequence: T1 sequence with N180Q, A181S

[8] = target: T8, PUM1 PUF domain R5-QVR C1007Q + R1008V + Q1011R (Homo sapiens) (UniProt Q14671)
T8 sequence: T1 sequence with N180Q, A181V

[9] = target: T9, PUM1 PUF domain R5-RAA C1007R + R1008A + Q1011A (UniProt Q14671)
T9 sequence: T1 sequence with N180R, R184A

[10] = target: T10, PUM1 PUF domain R5-RAD C1007R + R1008A + Q1011D (UniProt Q14671)
T10 sequence: T1 sequence with N180R, R184D

[11] = target: T11, PUM1 PUF domain R5-RAM C1007R + R1008A + Q1011M (Homo sapiens) (UniProt Q14671)
T11 sequence: T1 sequence with N180R, R184M

[12] = target: T12, PUM1 PUF domain R5-RAQ C1007R + R1008A (Homo sapiens) (UniProt Q14671)
T12 sequence: T1 sequence with N180R, R184Q

[13] = target: T13, PUM1 PUF domain R5-RAR C1007R + R1008A + Q1011R (Homo sapiens) (UniProt Q14671)
T13 sequence: T1 sequence with N180R

[14] = target: T14, PUM1 PUF domain R5-RAS C1007R + R1008A + Q1011S (UniProt Q14671)
T14 sequence: T1 sequence with N180R, R184S

[15] = target: T15, PUM1 PUF domain R5-RAT C1007R + R1008A + Q1011T (Homo sapiens) (UniProt Q14671)
T15 sequence: T1 sequence with N180R, R184T

[16] = target: T16, PUM1 PUF domain R5-RAV C1007R + R1008A + Q1011V (UniProt Q14671)
T16 sequence: T1 sequence with N180R, R184V

[17] = target: T17, PUM1 PUF domain R5-RCC C1007R + R1008C + Q1011C (Homo sapiens) (UniProt Q14671)
T17 sequence: T1 sequence with N180R, A181C, R184C

[18] = target: T18, PUM1 PUF domain R5-RCD C1007R + R1008C + Q1011D (UniProt Q14671)
T18 sequence: T1 sequence with N180R, A181C, R184D

[19] = target: T19, PUM1 PUF domain R5-RCG C1007R + R1008C + Q1011G (Homo sapiens) (UniProt Q14671)
T19 sequence: T1 sequence with N180R, A181C, R184G

[20] = target: T20, PUM1 PUF domain R5-RCK C1007R + R1008C + Q1011K (Homo sapiens) (UniProt Q14671)
T20 sequence: T1 sequence with N180R, A181C, R184K

[21] = target: T21, PUM1 PUF domain R5-RCL C1007R + R1008C + Q1011L (Homo sapiens) (UniProt Q14671)
T21 sequence: T1 sequence with N180R, A181C, R184L

[22] = target: T22, PUM1 PUF domain R5-RCR C1007R + R1008C + Q1011R (Homo sapiens) (UniProt Q14671)
T22 sequence: T1 sequence with N180R, A181C

[23] = target: T23, PUM1 PUF domain R5-RCS C1007R + R1008C + Q1011S (Homo sapiens) (UniProt Q14671)
T23 sequence: T1 sequence with N180R, A181C, R184S

[24] = target: T24, PUM1 PUF domain R5-RCV C1007R + R1008C + Q1011V (UniProt Q14671)
T24 sequence: T1 sequence with N180R, A181C, R184V

[25] = target: T25, PUM1 PUF domain R5-RFP C1007R + R1008F + Q1011P (Homo sapiens) (UniProt Q14671)
T25 sequence: T1 sequence with N180R, A181F, R184P

[26] = target: T26, PUM1 PUF domain R5-RGA C1007R + R1008G + Q1011A (UniProt Q14671)
T26 sequence: T1 sequence with N180R, A181G, R184A

[27] = target: T27, PUM1 PUF domain R5-RGC C1007R + R1008G + Q1011C (Homo sapiens) (UniProt Q14671)
T27 sequence: T1 sequence with N180R, A181G, R184C

[28] = target: T28, PUM1 PUF domain R5-RGD C1007R + R1008G + Q1011D (UniProt Q14671)
T28 sequence: T1 sequence with N180R, A181G, R184D

[29] = target: T29, PUM1 PUF domain R5-RGE C1007R + R1008G + Q1011E (UniProt Q14671)
T29 sequence: T1 sequence with N180R, A181G, R184E

[30] = target: T30, PUM1 PUF domain R5-RGG C1007R + R1008G + Q1011G (Homo sapiens) (UniProt Q14671)
T30 sequence: T1 sequence with N180R, A181G, R184G

[31] = target: T31, PUM1 PUF domain R5-RGM C1007R + R1008G + Q1011M (Homo sapiens) (UniProt Q14671)
T31 sequence: T1 sequence with N180R, A181G, R184M

[32] = target: T32, PUM1 PUF domain R5-RGP C1007R + R1008G + Q1011P (UniProt Q14671)
T32 sequence: T1 sequence with N180R, A181G, R184P

[33] = target: T33, PUM1 PUF domain R5-RGQ C1007R + R1008G (Homo sapiens) (UniProt Q14671)
T33 sequence: T1 sequence with N180R, A181G, R184Q

[34] = target: T34, PUM1 PUF domain R5-RGR C1007R + R1008G + Q1011R (Homo sapiens) (UniProt Q14671)
T34 sequence: T1 sequence with N180R, A181G

[35] = target: T35, PUM1 PUF domain R5-RGS C1007R + R1008G + Q1011S (UniProt Q14671)
T35 sequence: T1 sequence with N180R, A181G, R184S

[36] = target: T36, PUM1 PUF domain R5-RGT C1007R + R1008G + Q1011T (UniProt Q14671)
T36 sequence: T1 sequence with N180R, A181G, R184T

[37] = target: T37, PUM1 PUF domain R5-RGV C1007R + R1008G + Q1011V (UniProt Q14671)
T37 sequence: T1 sequence with N180R, A181G, R184V

[38] = target: T38, PUM1 PUF domain R5-RGW C1007R + R1008G + Q1011W (UniProt Q14671)
T38 sequence: T1 sequence with N180R, A181G, R184W

[39] = target: T39, PUM1 PUF domain R5-RHR C1007R + R1008H + Q1011R (Homo sapiens) (UniProt Q14671)
T39 sequence: T1 sequence with N180R, A181H

[40] = target: T40, PUM1 PUF domain R5-RKE C1007R + R1008K + Q1011E (Homo sapiens) (UniProt Q14671)
T40 sequence: T1 sequence with N180R, A181K, R184E

[41] = target: T41, PUM1 PUF domain R5-RKG C1007R + R1008K + Q1011G (Homo sapiens) (UniProt Q14671)
T41 sequence: T1 sequence with N180R, A181K, R184G

[42] = target: T42, PUM1 PUF domain R5-RKP C1007R + R1008K + Q1011P (Homo sapiens) (UniProt Q14671)
T42 sequence: T1 sequence with N180R, A181K, R184P

## GGCUAGAACUAGUGGAUCCCCCGGCGCCCGGCGGCUCGAGCCCGGGUAAGUGUGAAUAGUCUGCAUGCCGCCGGGCGCCAUGCCUGCAGGUCGACUCUAGAAAACAUG
[1]
  binding signal (log2 enrichment (interaction score)): -1.72
[2]
  binding signal (log2 enrichment (interaction score)): < -7.98
[3]
  binding signal (log2 enrichment (interaction score)): -0.9
[4]
  binding signal (log2 enrichment (interaction score)): -1.17
[5]
  binding signal (log2 enrichment (interaction score)): -1.52
[6]
  binding signal (log2 enrichment (interaction score)): -0.22
[7]
  binding signal (log2 enrichment (interaction score)): -6.82
[8]
  binding signal (log2 enrichment (interaction score)): -1.69
[9]
  binding signal (log2 enrichment (interaction score)): -6.28
[10]
  binding signal (log2 enrichment (interaction score)): -3.34
[11]
  binding signal (log2 enrichment (interaction score)): -1.93
[12]
  binding signal (log2 enrichment (interaction score)): -0.45
[13]
  binding signal (log2 enrichment (interaction score)): -0.54
[14]
  binding signal (log2 enrichment (interaction score)): -2.19
[15]
  binding signal (log2 enrichment (interaction score)): -0.6
[16]
  binding signal (log2 enrichment (interaction score)): -4.53
[17]
  binding signal (log2 enrichment (interaction score)): -0.19
[18]
  binding signal (log2 enrichment (interaction score)): < -7.19
[19]
  binding signal (log2 enrichment (interaction score)): -1.34
[20]
  binding signal (log2 enrichment (interaction score)): -1.17
[21]
  binding signal (log2 enrichment (interaction score)): -1.8
[22]
  binding signal (log2 enrichment (interaction score)): -0.91
[23]
  binding signal (log2 enrichment (interaction score)): -1.19
[24]
  binding signal (log2 enrichment (interaction score)): -6.79
[25]
  binding signal (log2 enrichment (interaction score)): -0.41
[26]
  binding signal (log2 enrichment (interaction score)): -3.33
[27]
  binding signal (log2 enrichment (interaction score)): -2.22
[28]
  binding signal (log2 enrichment (interaction score)): -6.01
[29]
  binding signal (log2 enrichment (interaction score)): -4.12
[30]
  binding signal (log2 enrichment (interaction score)): -1.04
[31]
  binding signal (log2 enrichment (interaction score)): -0.59
[32]
  binding signal (log2 enrichment (interaction score)): -2.91
[33]
  binding signal (log2 enrichment (interaction score)): -0.79
[34]
  binding signal (log2 enrichment (interaction score)): -0.27
[35]
  binding signal (log2 enrichment (interaction score)): -3.15
[36]
  binding signal (log2 enrichment (interaction score)): -2.27
[37]
  binding signal (log2 enrichment (interaction score)): -3.42
[38]
  binding signal (log2 enrichment (interaction score)): -7.43
[39]
  binding signal (log2 enrichment (interaction score)): 1.14
[40]
  binding signal (log2 enrichment (interaction score)): -1.18
[41]
  binding signal (log2 enrichment (interaction score)): -2.16
[42]
  binding signal (log2 enrichment (interaction score)): -0.89
